This passage reports NP40-soluble protein abundance results from the supplement of paper PMC6411743.

The chains behind the UniProt entries cited, without tags or fusion partners. Where a name states a change or a piece, a line headed by the entry shows the natural chain unless it says otherwise.
UniProt Q14191, whole entry: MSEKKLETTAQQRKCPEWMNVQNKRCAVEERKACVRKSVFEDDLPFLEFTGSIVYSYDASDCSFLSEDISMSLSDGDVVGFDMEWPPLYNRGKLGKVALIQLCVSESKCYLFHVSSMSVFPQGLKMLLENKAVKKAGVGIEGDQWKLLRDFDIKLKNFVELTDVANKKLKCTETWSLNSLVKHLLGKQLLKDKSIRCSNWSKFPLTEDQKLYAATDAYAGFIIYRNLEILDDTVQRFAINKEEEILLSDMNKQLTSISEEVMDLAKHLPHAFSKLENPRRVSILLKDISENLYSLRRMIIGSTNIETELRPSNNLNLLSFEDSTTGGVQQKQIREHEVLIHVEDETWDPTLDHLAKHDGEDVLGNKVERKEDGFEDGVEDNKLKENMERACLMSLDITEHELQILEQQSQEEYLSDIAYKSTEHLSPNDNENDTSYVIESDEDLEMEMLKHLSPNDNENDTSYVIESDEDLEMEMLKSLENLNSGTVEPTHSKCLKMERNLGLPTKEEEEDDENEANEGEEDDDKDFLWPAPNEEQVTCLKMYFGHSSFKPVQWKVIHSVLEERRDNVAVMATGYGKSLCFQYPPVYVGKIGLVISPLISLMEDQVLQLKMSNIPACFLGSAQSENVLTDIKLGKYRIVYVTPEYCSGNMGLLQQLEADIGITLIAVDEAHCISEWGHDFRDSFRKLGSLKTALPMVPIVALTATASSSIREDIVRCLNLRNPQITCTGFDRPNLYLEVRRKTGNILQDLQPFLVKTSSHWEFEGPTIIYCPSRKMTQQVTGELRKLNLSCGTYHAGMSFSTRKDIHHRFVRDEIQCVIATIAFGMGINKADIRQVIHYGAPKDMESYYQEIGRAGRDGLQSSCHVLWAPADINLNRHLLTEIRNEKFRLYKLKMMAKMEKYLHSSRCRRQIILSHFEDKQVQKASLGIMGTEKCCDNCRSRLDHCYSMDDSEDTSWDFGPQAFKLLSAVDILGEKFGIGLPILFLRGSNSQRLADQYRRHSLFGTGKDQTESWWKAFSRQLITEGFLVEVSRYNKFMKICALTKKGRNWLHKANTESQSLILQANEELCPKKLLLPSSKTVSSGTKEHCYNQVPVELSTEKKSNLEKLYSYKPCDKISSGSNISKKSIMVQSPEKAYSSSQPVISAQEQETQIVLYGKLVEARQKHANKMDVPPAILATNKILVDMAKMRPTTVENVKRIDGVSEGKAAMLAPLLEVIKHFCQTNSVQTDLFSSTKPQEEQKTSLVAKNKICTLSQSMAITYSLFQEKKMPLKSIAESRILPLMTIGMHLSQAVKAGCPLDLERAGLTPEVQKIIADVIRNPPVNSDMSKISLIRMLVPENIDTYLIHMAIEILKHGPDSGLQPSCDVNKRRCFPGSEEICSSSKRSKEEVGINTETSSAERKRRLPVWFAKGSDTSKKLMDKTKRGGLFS
UniProt Q13395: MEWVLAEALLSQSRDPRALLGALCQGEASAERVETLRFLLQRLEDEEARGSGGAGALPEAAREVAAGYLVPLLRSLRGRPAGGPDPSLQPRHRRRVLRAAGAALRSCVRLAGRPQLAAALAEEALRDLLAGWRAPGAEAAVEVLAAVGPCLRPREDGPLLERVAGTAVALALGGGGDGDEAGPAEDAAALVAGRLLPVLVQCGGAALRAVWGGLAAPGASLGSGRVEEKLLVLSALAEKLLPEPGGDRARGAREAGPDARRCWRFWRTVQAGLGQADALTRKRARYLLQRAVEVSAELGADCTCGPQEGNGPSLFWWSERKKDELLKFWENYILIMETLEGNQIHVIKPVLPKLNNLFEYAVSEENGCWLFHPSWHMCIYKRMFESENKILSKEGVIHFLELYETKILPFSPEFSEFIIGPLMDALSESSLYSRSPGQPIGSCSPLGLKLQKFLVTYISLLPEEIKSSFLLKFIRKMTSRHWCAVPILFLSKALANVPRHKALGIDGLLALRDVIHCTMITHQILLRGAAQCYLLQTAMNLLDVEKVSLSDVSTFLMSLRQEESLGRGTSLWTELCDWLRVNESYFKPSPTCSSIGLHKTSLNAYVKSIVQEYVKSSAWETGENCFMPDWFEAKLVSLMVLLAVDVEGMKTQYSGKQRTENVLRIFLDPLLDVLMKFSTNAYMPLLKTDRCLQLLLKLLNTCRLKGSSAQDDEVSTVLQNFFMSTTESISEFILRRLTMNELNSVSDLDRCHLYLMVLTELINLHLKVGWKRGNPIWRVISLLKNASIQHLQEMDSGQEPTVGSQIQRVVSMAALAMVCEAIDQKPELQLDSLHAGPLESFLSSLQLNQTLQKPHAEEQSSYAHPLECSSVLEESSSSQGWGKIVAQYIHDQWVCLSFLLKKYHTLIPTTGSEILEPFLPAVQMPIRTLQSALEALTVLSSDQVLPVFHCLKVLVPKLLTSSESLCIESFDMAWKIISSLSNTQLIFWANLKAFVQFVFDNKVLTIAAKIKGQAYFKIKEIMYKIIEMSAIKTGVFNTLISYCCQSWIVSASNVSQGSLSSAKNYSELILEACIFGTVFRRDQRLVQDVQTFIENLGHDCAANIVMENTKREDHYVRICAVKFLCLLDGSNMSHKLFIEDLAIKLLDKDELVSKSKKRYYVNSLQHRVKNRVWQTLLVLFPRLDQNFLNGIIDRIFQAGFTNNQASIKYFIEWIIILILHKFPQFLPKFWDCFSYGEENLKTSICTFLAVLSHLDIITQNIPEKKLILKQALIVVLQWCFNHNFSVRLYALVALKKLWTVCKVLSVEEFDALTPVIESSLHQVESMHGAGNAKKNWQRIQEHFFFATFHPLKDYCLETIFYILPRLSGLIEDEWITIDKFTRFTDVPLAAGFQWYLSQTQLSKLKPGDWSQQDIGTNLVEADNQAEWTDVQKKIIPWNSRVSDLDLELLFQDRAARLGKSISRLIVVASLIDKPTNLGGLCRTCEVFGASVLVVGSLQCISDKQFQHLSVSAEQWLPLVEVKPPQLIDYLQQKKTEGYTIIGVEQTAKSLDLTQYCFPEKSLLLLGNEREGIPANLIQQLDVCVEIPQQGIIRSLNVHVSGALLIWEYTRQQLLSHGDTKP
UniProt Q14257: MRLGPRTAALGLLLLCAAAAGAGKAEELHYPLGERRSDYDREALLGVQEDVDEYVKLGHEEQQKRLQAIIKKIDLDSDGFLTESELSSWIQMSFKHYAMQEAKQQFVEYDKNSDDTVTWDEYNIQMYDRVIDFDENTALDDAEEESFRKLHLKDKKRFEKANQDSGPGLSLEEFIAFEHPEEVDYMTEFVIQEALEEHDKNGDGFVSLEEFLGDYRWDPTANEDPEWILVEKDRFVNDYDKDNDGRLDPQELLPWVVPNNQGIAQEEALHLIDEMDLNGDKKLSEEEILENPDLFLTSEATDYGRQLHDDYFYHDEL
UniProt Q10471: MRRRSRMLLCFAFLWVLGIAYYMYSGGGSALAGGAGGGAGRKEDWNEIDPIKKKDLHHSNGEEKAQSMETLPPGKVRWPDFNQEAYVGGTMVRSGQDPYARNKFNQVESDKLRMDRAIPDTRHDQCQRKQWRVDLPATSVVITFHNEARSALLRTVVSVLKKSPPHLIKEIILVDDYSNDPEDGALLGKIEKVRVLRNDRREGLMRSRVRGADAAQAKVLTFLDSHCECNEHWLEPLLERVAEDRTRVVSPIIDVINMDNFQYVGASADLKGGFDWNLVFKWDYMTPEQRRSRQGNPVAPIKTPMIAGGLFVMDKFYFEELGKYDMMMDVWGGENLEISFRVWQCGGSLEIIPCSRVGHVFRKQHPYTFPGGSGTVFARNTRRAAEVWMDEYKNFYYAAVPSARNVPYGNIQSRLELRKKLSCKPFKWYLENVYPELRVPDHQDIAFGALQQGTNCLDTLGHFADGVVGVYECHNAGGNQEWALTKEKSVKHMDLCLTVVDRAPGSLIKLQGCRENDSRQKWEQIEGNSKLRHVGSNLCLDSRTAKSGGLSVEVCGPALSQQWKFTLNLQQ
UniProt Q04721: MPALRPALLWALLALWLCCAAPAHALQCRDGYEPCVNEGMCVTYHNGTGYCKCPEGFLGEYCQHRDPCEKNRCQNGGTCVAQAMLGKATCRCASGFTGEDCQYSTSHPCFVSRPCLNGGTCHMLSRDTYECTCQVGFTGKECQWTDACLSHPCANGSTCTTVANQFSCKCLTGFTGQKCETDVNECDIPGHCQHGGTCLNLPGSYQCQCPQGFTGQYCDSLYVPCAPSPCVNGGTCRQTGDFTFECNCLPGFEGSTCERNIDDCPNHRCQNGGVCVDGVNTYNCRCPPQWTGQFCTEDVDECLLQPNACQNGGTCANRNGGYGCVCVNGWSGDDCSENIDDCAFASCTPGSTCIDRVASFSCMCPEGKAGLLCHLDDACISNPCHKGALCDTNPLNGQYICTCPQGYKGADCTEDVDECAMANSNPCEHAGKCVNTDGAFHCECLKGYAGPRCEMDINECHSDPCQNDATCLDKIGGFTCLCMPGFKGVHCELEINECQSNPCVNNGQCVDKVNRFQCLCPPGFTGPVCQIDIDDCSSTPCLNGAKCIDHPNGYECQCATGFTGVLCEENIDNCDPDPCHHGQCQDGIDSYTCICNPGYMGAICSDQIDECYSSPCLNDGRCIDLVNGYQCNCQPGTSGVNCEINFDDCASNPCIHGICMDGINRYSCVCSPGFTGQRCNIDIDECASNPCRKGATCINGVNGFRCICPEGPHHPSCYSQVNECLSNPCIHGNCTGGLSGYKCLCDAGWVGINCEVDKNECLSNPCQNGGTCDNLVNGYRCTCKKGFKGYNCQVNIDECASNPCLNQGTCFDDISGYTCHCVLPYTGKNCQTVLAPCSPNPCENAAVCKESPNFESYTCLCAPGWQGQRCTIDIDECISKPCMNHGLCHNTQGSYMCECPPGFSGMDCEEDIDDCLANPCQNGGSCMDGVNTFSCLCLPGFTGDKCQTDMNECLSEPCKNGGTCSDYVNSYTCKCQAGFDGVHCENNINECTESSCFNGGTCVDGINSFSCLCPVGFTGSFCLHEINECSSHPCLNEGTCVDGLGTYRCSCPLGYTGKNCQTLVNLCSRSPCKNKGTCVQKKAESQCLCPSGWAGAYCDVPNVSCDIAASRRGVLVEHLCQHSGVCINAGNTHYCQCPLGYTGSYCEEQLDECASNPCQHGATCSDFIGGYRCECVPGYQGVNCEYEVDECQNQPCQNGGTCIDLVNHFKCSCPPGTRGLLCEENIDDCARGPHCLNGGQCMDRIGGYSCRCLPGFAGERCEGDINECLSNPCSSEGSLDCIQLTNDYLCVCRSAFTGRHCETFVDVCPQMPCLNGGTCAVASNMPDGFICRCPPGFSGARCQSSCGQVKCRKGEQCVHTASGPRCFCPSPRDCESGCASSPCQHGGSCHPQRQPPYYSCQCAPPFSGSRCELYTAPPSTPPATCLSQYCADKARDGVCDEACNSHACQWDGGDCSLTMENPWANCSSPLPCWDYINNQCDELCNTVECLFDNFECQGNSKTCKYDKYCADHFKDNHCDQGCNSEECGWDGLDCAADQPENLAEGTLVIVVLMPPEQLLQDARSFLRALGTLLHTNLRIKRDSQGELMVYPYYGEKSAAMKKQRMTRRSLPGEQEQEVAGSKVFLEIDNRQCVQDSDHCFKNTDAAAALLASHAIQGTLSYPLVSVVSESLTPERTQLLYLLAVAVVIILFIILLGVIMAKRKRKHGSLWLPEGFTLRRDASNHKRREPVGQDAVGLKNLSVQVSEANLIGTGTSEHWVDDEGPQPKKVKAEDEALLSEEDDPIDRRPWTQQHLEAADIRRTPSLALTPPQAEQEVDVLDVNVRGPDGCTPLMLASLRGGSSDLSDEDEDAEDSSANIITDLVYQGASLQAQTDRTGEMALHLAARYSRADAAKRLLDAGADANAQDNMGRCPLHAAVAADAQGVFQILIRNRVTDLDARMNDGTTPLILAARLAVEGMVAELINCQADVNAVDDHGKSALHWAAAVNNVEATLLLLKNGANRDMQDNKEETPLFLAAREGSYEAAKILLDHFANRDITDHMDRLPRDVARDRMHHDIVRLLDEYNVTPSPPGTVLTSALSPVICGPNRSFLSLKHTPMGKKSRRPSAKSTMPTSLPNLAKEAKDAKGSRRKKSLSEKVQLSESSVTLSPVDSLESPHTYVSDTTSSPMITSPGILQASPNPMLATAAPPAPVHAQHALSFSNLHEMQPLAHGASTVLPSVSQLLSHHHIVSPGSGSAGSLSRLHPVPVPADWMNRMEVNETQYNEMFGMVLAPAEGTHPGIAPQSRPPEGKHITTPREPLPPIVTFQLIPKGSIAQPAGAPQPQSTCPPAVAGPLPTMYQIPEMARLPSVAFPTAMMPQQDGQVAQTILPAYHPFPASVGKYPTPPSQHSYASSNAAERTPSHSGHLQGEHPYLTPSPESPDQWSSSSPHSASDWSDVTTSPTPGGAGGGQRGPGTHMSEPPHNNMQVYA

± gives the standard deviation of the averaged measurements. The list shows a part of the results.

Compound in this assay: Nc1nc2c(ncn2[C@@H]2O[C@H](COP(=O)(O)OP(=O)(O)OP(=O)(O)O)[C@@H](O)[C@H]2O)c(=O)[nH]1 [guanosine triphosphate]
Briefly: NP40-soluble protein abundance relative to vehicle (solubility fold change) (ratio); higher = more soluble protein in presence of GTP. The essentials:
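Each value is a fold change relative to the detergent-processed vehicle, calculated per replicate from vsn-normalised intensities. Jurkat crude lysate received eight concentrations (0.1 to 10 mM) for 10 min at room temperature and 3 min at 37 °C, then was solubilised in 0.8% NP40 with benzonase (60 min, 4 °C). The ultracentrifuged supernatant was TMT-labelled and run by LC-MS/MS in three independent experiments.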

As to WRN (UniProt Q14191), the NP40-soluble protein abundance reads like this: (concentration: 0.1mM) 1.04 ± 0.071; (concentration: 0.5mM) 1.04 ± 0.08; (concentration: 1mM) 1.08 ± 0.1; (concentration: 2mM) 1.1 ± 0.063; (concentration: 4mM) 1.08 ± 0.079; (concentration: 6mM) 1.09 ± 0.056. Also, the NP40-soluble protein abundance (concentration: 8mM) is 1.1 ± 0.084 and the NP40-soluble protein abundance (concentration: 10mM) is 1.06 ± 0.044.
Turning to NMI (UniProt Q13287), the NP40-soluble protein abundance reads like this: (concentration: 0.1mM) 1 ± 0.03; (concentration: 0.5mM) 0.969 ± 0.029; (concentration: 1mM) 0.959 ± 0.033; (concentration: 2mM) 0.93 ± 0.026; (concentration: 4mM) 0.941 ± 0.065; (concentration: 6mM) 0.929 ± 0.034. Further, the NP40-soluble protein abundance reads like this: (concentration: 8mM) 0.932 ± 0.024; (concentration: 10mM) 0.909 ± 0.056.
On to CHAF1B (UniProt Q13112), for which the NP40-soluble protein abundance (concentration: 0.1mM) is 1.04 ± 0.021; the NP40-soluble protein abundance (concentration: 0.5mM) worked out at 1.07 ± 0.029; the NP40-soluble protein abundance (concentration: 1mM) stood at 1.03 ± 0.036; the NP40-soluble protein abundance (concentration: 2mM) stood at 1.041 ± 0.01; the NP40-soluble protein abundance (concentration: 4mM) turned out to be 1.04 ± 0.024; the NP40-soluble protein abundance (concentration: 6mM) worked out at 1.04 ± 0.013. In addition, the NP40-soluble protein abundance (concentration: 8mM) was 1.06 ± 0.068 and the NP40-soluble protein abundance (concentration: 10mM) is 1.02 ± 0.012.
Consider UniProt Q13627 and related entries, for which the NP40-soluble protein abundance stood at 1.09 ± 0.028 (concentration: 0.1mM); 1.16 ± 0.1 (concentration: 0.5mM); 1.08 ± 0.037 (concentration: 1mM); 1.11 ± 0.058 (concentration: 2mM); 1.14 ± 0.076 (concentration: 4mM); 1.16 ± 0.086 (concentration: 6mM). Further, the NP40-soluble protein abundance (concentration: 8mM) turned out to be 1.15 ± 0.078 and the NP40-soluble protein abundance (concentration: 10mM) was found to be 1.14 ± 0.053.
On to UniProt Q14197, for which the NP40-soluble protein abundance was 1.07 ± 0.19 (concentration: 0.1mM); 1.14 ± 0.26 (concentration: 0.5mM); 1.42 ± 0.46 (concentration: 1mM); 1.5 ± 0.45 (concentration: 2mM); 1.58 ± 0.56 (concentration: 4mM); 1.54 ± 0.51 (concentration: 6mM). Further, the NP40-soluble protein abundance reads like this: (concentration: 8mM) 1.48 ± 0.53; (concentration: 10mM) 1.41 ± 0.52.
As to TARBP1 (UniProt Q13395), the NP40-soluble protein abundance by setting is: (concentration: 0.1mM) 0.976 ± 0.079; (concentration: 0.5mM) 0.968 ± 0.12; (concentration: 1mM) 0.959 ± 0.1; (concentration: 2mM) 1.01 ± 0.033; (concentration: 4mM) 0.929 ± 0.081; (concentration: 6mM) 0.951 ± 0.055. In addition, the NP40-soluble protein abundance by setting is: (concentration: 8mM) 0.906 ± 0.12; (concentration: 10mM) 0.897 ± 0.071.
Regarding UniProt Q12904, the NP40-soluble protein abundance runs as follows: (concentration: 0.1mM) 0.984 ± 0.028; (concentration: 0.5mM) 1.05 ± 0.051; (concentration: 1mM) 1.11 ± 0.1; (concentration: 2mM) 1.15 ± 0.17; (concentration: 4mM) 1.18 ± 0.25; (concentration: 6mM) 1.23 ± 0.24. For the same target, the NP40-soluble protein abundance by setting is: (concentration: 8mM) 1.24 ± 0.28; (concentration: 10mM) 1.2 ± 0.26.
As to UniProt Q14257 and related entries, the NP40-soluble protein abundance (concentration: 0.1mM) was 0.939 ± 0.04; the NP40-soluble protein abundance (concentration: 0.5mM) was 0.958 ± 0.025; the NP40-soluble protein abundance (concentration: 1mM) stood at 1.05 ± 0.079; the NP40-soluble protein abundance (concentration: 2mM) was determined as 1.01 ± 0.024; the NP40-soluble protein abundance (concentration: 4mM) was determined as 1.01 ± 0.014; the NP40-soluble protein abundance (concentration: 6mM) came out at 0.982 ± 0.028. Further, the NP40-soluble protein abundance was determined as 1.03 ± 0.077 (concentration: 8mM) and 0.968 ± 0.046 (concentration: 10mM).
Regarding YWHAH (UniProt Q04917), the NP40-soluble protein abundance (concentration: 0.1mM) worked out at 0.812 ± 0.096; the NP40-soluble protein abundance (concentration: 0.5mM) is 0.764 ± 0.081; the NP40-soluble protein abundance (concentration: 1mM) is 0.962 ± 0.084; the NP40-soluble protein abundance (concentration: 2mM) was found to be 0.917 ± 0.048; the NP40-soluble protein abundance (concentration: 4mM) turned out to be 0.899 ± 0.058; the NP40-soluble protein abundance (concentration: 6mM) turned out to be 0.934 ± 0.075. Further, the NP40-soluble protein abundance is, setting by setting: (concentration: 8mM) 0.862 ± 0.12; (concentration: 10mM) 0.955 ± 0.062.
On to UniProt Q13362-2|Q13362-4, for which the NP40-soluble protein abundance is, setting by setting: (concentration: 0.1mM) 0.969 ± 0.03; (concentration: 0.5mM) 0.93 ± 0.021; (concentration: 1mM) 0.9946 ± 0.0062; (concentration: 2mM) 0.98 ± 0.024; (concentration: 4mM) 1 ± 0.058; (concentration: 6mM) 0.939 ± 0.036. The NP40-soluble protein abundance is, setting by setting: (concentration: 8mM) 1.01 ± 0.039; (concentration: 10mM) 1 ± 0.028.
TARDBP (UniProt Q13148): the NP40-soluble protein abundance reads like this: (concentration: 0.1mM) 0.992 ± 0.053; (concentration: 0.5mM) 1.02 ± 0.04; (concentration: 1mM) 0.963 ± 0.052; (concentration: 2mM) 0.925 ± 0.046; (concentration: 4mM) 0.895 ± 0.053; (concentration: 6mM) 0.954 ± 0.06. Besides, the NP40-soluble protein abundance was determined as 0.933 ± 0.02 (concentration: 8mM) and 0.907 ± 0.038 (concentration: 10mM).
On to GALNT2 (UniProt Q10471), for which the NP40-soluble protein abundance was found to be 1.02 ± 0.025 (concentration: 0.1mM); 0.97 ± 0.021 (concentration: 0.5mM); 0.9568 ± 0.0034 (concentration: 1mM); 0.917 ± 0.014 (concentration: 2mM); 0.928 ± 0.022 (concentration: 4mM); 0.901 ± 0.012 (concentration: 6mM). For the same target, the NP40-soluble protein abundance (concentration: 8mM) turned out to be 0.927 ± 0.046 and the NP40-soluble protein abundance (concentration: 10mM) amounted to 0.861 ± 0.052.
UniProt Q13409 and related entries: the NP40-soluble protein abundance (concentration: 0.1mM) was determined as 0.962 ± 0.0076; the NP40-soluble protein abundance (concentration: 0.5mM) was found to be 1.07 ± 0.046; the NP40-soluble protein abundance (concentration: 1mM) was 1.04 ± 0.061; the NP40-soluble protein abundance (concentration: 2mM) came out at 1.08 ± 0.059; the NP40-soluble protein abundance (concentration: 4mM) was 1.12 ± 0.15; the NP40-soluble protein abundance (concentration: 6mM) came to 1.11 ± 0.087. In addition, the NP40-soluble protein abundance reads like this: (concentration: 8mM) 1.13 ± 0.14; (concentration: 10mM) 1.16 ± 0.12.
NOTCH2 (UniProt Q04721): the NP40-soluble protein abundance runs as follows: (concentration: 0.1mM) 0.991 ± 0.023; (concentration: 0.5mM) 1.03 ± 0.042; (concentration: 1mM) 1.086 ± 0.0064; (concentration: 2mM) 1.12 ± 0.069; (concentration: 4mM) 0.967 ± 0.22; (concentration: 6mM) 1.08 ± 0.23. Moreover, the NP40-soluble protein abundance is, setting by setting: (concentration: 8mM) 1.08 ± 0.028; (concentration: 10mM) 1.06 ± 0.08.
As to UniProt Q02750, the NP40-soluble protein abundance is, setting by setting: (concentration: 0.1mM) 0.899 ± 0.071; (concentration: 0.5mM) 0.955 ± 0.051; (concentration: 1mM) 0.89 ± 0.051; (concentration: 2mM) 0.857 ± 0.053; (concentration: 4mM) 0.834 ± 0.05; (concentration: 6mM) 0.856 ± 0.056. In addition, the NP40-soluble protein abundance (concentration: 8mM) stood at 0.834 ± 0.071 and the NP40-soluble protein abundance (concentration: 10mM) came out at 0.847 ± 0.061.
